Results as given in doi:10.1101/2022.07.10.499475.
The exact form of at least one protein or probe is not confirmed. For some assays here: A negative result means that nothing was seen under these conditions.

What was measured:
Assay in all cases: EMSA
FMRP-WT (human) = FMRP-WT (human) (UniProt Q06787); conditions: residues 1-632
[1] = biological target: FMRP N-Fold-I304N (human) (UniProt Q06787); conditions: residues 1-455
FMRP-I304N (human) = FMRP-I304N (human) (UniProt Q06787); conditions: residues 1-632
FMRP N-Fold-WT (human) = FMRP N-Fold-WT (human) (UniProt Q06787); conditions: residues 1-455
FMRP C-IDR (human) = FMRP C-IDR (human) (UniProt Q06787); conditions: residues 445-632

“ACGCTGCCGAATTCTACCAGTGCCTTGCTAGGACATCTTTGCCCACCTGCAGGTTCACCC [ssDNA (60 bs)]” was tested, and the Kd (FMRP-WT (human)) was 302 nM, the binding result [1] was “no binding” and the Kd (FMRP-I304N (human)) was 388 nM. For the same sequence, the Kd (FMRP N-Fold-WT (human)) was 617 nM and the Kd (FMRP C-IDR (human)) was 79.6 nM.
